Data source: PubChem BioAssay AID1053208 (Peter MacCallum Cancer Centre, 2014)
Purpose: 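Genes whose silencing cuts survival of bone tumour cells only with doxorubicin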 (primary screen). Cell system: mouse osteosarcoma cells, early-passage culture from an engineered mouse model of fibroblastic bone tumour. Reagents: siRNA pool against mouse genes, 40 nM. Timing: about 120 h (48 h before drug, then 72 h with drug). Conditions: doxorubicin 100 nM for 72 h, roughly 30-40% inhibitory dose. Measurement: 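Luminescent ATP signal taken as viability with or without 100 nM doxorubicin for 72 h; mean of two wells set against non-targeting siRNA and turned into robust z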. Scale: viability z-score with doxorubicin and doxorubicin viability vs non-targeting: higher = more viable cells under doxorubicin; viability z-score without drug: higher = more viable cells with knock-down alone; z-score of drug to no-drug ratio: higher = less drug sensitisation by knock-down. Active means: 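a pool counts as active when its viability z-score with doxorubicin is -2 or below and its z-score without drug lies between -2 and 2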.
This is one part, drawn at random, of about 17,000 deposited reagents. Over the whole deposit, 788 (4.7%) got an active call. 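Calls rest on z-score classes alone; an extra cut-off of viability at most 70% of control was not applied to them.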 Reagent sequences are not shown.

combined z-score class,viability z-score with doxorubicin,viability z-score without drug,z-score of drug to no-drug ratio,doxorubicin viability vs non-targeting,call,target gene,PubChem SID
low cell count with doxorubicin only,-2.7,0.34,-2.92,0.7,active,"Pcdhgb1 (protocadherin gamma subfamily B, 1)",SID152274050
low cell count with doxorubicin only,-2.02,-1.52,-1.12,0.76,active,Mageb2 (MAGE family member B2),SID152320006
low cell count with doxorubicin only,-2.47,-0.51,-2.25,0.72,active,Mei4 (meiotic double-stranded break formation protein 4),SID152296400
high cell count without drug only,1.57,2.87,-0.22,1.08,inactive,"H2-Q8 (histocompatibility 2, Q region locus 8)",SID152296142
no change with or without drug,-0.67,-0.17,-0.45,0.88,inactive,Brd7 (bromodomain containing 7),SID152288186
no change with or without drug,0.34,0.84,-0.11,0.97,inactive,9930014A18Rik (RIKEN cDNA 9930014A18 gene),SID152315427
no change with or without drug,0.45,-0.34,0.79,0.98,inactive,Calr3 (calreticulin 3),SID152301467
no change with or without drug,-0.79,-0.17,-0.56,0.87,inactive,Fibcd1 (fibrinogen C domain containing 1),SID152259159
no change with or without drug,0.79,0.17,0.79,1.01,inactive,Bap1 (Brca1 associated protein 1),SID152320242
no change with or without drug,0.67,0.34,0.56,1,inactive,Eps15 (EGFR pathway substrate 15),SID152275726
high cell count without drug only,0.34,2.19,-0.9,0.97,inactive,"Ttf1 (transcription termination factor, RNA polymerase I)",SID152300866
no change with or without drug,0.22,-0.51,0.67,0.96,inactive,Tmem41b (transmembrane protein 41B),SID152294417
no change with or without drug,-0.9,0.67,-1.24,0.86,inactive,Ctdnep1 (CTD nuclear envelope phosphatase 1),SID152266291
no change with or without drug,-0.45,0.84,-0.9,0.9,inactive,Zfp341 (zinc finger protein 341),SID152282752
low cell count with and without drug,-3.15,-3.2,-1.24,0.66,inactive,Reg2 (regenerating islet-derived 2),SID152294236
high cell count with and without drug,2.36,2.19,0.9,1.15,inactive,"Rab4b (RAB4B, member RAS oncogene family)",SID152264782
high cell count with doxorubicin only,2.25,1.52,1.35,1.14,inactive,Zfp598 (zinc finger protein 598),SID152262684
no change with or without drug,-0.22,0.34,-0.34,0.92,inactive,A930012O16Rik (RIKEN cDNA A930012O16 gene),SID152287536
no change with or without drug,1.8,0.17,1.91,1.1,inactive,Vmn1r23 (vomeronasal 1 receptor 23),SID152339107
high cell count without drug only,-1.35,3.71,-3.15,0.82,inactive,Etfrf1 (electron transfer flavoprotein regulatory factor 1),SID152307896

Individual results from the entries so far.
9930014A18Rik (RIKEN cDNA 9930014A18 gene) [SID152315427], viability z-score without drug: 0.84
Result of Calr3 (calreticulin 3) [SID152301467] in “call”: inactive
